# Test results from the supplement of paper PMC12067093, “Discovery and optimisation of a covalent ligand for TRIM25 and its application to targeted protein ubiquitination” (Chemical Science, 2025).
# This is one part of the list.
# Compound: Cc1cc(ccc1-c1ccccc1)C(=O)N1CCCN(CC1)C(=O)CCl [compound 10]
# Assay: probe-labelled cysteine peptide fold change vs DMSO (competition) (log2 fold change); higher = less target engagement (more negative = stronger competition)
# Conditions: THP-1, incubation time: 4 h
# 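Further: competitive profiling in live THP-1 cells: cysteine peptides tagged with an iodoacetamide desthiobiotin (IA-DTB) probe, intensity after compound treatment relative to DMSO-treated cells.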
Target,probe-labelled cysteine peptide fold change (10 µM),probe-labelled cysteine peptide fold change (50 µM)
RASA2_Q15283_354_SPDVQPISASAAYILSEICR (UniProt Q15283),0.296,0.129
RAN_P62826_120_VCENIPIVLCGNKVDIK (UniProt P62826),-0.278,-0.646
RANBP10_Q6VN20_243_VQGTVHCFPISAR (UniProt Q6VN20),-0.138,-0.226
RASGRP4_Q8TDF6_502_LSGNFPFACHGLHPPPR (UniProt Q8TDF6),-0.315,-0.369
RBM19_Q9Y4C8_31_QLFAAFGTLTDCSLK (UniProt Q9Y4C8),0.301,0.448
RB1_P06400_283_EHECNIDEVK (UniProt P06400),0.125,-0.0092
RBM12_Q9NTZ6_545_VCAHITNIPFSITK (UniProt Q9NTZ6),0.115,-0.0693
RB1CC1_Q8TDY2_946_LLEMENIMHSQNCEIK (UniProt Q8TDY2),-0.15,-0.0184
RAVER1_Q8IY67_224_CLCVDRLPPGFNDVDALCR (UniProt Q8IY67),-0.000295,-0.217
RBM5_P52756_187_FEDWLCNK (UniProt P52756),-0.13,-0.114
RANBP2_P49792_1502_CAACQNPR (UniProt P49792),0.221,-0.00857
RC3H1_Q5TC82_33_KPISLGCGHTVCK (UniProt Q5TC82),0.0546,-0.023
RBM4B_Q9BQ04_89_LHVGNISPTCTNQELR (UniProt Q9BQ04),0.0928,0.191
RCC1L_Q96I51_114_ISSAACGYGFTLLSSK (UniProt Q96I51),-0.129,-0.0746
RBM34_P42696_196_TVFVGNLPVTCNK (UniProt P42696),0.0157,-0.186
RBM10_P98175_222_CGVQNFK (UniProt P98175),-0.0428,-0.156
RBM27_Q9P2N5_279_CRDYDER (UniProt Q9P2N5),0.245,-0.0033
RBM5_P52756_649_MACLLCR (UniProt P52756),-0.0352,0.105
RANBP6_O60518_118_LCDIFAVLAR (UniProt O60518),-0.0407,0.252
RECQL4_O94761_1008_ALCQLQWDHEPR (UniProt O94761),-0.262,-0.501
RAN_P62826_112+120_VCENIPIVLCGNK (UniProt P62826),0.0758,-0.0466
RCHY1_Q96PM5_87_IQHAQQTCEECSTLFGEYYCDICHLFDK (UniProt Q96PM5),-0.0605,-0.293

# Complete entries, quoted from the list. Order of values: probe-labelled cysteine peptide fold change (10 µM)	probe-labelled cysteine peptide fold change (50 µM)
# RCHY1_Q96PM5_87_IQHAQQTCEECSTLFGEYYCDICHLFDK (UniProt Q96PM5) is entered as -0.0605	-0.293
# RBM10_P98175_222_CGVQNFK (UniProt P98175) is entered as -0.0428	-0.156
